Results are given in words; binding and its absence hold for the method and conditions named. Binding seen in cells or lysates may run through a third protein. Some entries that bind do so weakly or less than the wild type. Sequences can lack the tags named with a protein.

Amino acid sequences for entries named in this document (tags omitted).
UniProt P78527: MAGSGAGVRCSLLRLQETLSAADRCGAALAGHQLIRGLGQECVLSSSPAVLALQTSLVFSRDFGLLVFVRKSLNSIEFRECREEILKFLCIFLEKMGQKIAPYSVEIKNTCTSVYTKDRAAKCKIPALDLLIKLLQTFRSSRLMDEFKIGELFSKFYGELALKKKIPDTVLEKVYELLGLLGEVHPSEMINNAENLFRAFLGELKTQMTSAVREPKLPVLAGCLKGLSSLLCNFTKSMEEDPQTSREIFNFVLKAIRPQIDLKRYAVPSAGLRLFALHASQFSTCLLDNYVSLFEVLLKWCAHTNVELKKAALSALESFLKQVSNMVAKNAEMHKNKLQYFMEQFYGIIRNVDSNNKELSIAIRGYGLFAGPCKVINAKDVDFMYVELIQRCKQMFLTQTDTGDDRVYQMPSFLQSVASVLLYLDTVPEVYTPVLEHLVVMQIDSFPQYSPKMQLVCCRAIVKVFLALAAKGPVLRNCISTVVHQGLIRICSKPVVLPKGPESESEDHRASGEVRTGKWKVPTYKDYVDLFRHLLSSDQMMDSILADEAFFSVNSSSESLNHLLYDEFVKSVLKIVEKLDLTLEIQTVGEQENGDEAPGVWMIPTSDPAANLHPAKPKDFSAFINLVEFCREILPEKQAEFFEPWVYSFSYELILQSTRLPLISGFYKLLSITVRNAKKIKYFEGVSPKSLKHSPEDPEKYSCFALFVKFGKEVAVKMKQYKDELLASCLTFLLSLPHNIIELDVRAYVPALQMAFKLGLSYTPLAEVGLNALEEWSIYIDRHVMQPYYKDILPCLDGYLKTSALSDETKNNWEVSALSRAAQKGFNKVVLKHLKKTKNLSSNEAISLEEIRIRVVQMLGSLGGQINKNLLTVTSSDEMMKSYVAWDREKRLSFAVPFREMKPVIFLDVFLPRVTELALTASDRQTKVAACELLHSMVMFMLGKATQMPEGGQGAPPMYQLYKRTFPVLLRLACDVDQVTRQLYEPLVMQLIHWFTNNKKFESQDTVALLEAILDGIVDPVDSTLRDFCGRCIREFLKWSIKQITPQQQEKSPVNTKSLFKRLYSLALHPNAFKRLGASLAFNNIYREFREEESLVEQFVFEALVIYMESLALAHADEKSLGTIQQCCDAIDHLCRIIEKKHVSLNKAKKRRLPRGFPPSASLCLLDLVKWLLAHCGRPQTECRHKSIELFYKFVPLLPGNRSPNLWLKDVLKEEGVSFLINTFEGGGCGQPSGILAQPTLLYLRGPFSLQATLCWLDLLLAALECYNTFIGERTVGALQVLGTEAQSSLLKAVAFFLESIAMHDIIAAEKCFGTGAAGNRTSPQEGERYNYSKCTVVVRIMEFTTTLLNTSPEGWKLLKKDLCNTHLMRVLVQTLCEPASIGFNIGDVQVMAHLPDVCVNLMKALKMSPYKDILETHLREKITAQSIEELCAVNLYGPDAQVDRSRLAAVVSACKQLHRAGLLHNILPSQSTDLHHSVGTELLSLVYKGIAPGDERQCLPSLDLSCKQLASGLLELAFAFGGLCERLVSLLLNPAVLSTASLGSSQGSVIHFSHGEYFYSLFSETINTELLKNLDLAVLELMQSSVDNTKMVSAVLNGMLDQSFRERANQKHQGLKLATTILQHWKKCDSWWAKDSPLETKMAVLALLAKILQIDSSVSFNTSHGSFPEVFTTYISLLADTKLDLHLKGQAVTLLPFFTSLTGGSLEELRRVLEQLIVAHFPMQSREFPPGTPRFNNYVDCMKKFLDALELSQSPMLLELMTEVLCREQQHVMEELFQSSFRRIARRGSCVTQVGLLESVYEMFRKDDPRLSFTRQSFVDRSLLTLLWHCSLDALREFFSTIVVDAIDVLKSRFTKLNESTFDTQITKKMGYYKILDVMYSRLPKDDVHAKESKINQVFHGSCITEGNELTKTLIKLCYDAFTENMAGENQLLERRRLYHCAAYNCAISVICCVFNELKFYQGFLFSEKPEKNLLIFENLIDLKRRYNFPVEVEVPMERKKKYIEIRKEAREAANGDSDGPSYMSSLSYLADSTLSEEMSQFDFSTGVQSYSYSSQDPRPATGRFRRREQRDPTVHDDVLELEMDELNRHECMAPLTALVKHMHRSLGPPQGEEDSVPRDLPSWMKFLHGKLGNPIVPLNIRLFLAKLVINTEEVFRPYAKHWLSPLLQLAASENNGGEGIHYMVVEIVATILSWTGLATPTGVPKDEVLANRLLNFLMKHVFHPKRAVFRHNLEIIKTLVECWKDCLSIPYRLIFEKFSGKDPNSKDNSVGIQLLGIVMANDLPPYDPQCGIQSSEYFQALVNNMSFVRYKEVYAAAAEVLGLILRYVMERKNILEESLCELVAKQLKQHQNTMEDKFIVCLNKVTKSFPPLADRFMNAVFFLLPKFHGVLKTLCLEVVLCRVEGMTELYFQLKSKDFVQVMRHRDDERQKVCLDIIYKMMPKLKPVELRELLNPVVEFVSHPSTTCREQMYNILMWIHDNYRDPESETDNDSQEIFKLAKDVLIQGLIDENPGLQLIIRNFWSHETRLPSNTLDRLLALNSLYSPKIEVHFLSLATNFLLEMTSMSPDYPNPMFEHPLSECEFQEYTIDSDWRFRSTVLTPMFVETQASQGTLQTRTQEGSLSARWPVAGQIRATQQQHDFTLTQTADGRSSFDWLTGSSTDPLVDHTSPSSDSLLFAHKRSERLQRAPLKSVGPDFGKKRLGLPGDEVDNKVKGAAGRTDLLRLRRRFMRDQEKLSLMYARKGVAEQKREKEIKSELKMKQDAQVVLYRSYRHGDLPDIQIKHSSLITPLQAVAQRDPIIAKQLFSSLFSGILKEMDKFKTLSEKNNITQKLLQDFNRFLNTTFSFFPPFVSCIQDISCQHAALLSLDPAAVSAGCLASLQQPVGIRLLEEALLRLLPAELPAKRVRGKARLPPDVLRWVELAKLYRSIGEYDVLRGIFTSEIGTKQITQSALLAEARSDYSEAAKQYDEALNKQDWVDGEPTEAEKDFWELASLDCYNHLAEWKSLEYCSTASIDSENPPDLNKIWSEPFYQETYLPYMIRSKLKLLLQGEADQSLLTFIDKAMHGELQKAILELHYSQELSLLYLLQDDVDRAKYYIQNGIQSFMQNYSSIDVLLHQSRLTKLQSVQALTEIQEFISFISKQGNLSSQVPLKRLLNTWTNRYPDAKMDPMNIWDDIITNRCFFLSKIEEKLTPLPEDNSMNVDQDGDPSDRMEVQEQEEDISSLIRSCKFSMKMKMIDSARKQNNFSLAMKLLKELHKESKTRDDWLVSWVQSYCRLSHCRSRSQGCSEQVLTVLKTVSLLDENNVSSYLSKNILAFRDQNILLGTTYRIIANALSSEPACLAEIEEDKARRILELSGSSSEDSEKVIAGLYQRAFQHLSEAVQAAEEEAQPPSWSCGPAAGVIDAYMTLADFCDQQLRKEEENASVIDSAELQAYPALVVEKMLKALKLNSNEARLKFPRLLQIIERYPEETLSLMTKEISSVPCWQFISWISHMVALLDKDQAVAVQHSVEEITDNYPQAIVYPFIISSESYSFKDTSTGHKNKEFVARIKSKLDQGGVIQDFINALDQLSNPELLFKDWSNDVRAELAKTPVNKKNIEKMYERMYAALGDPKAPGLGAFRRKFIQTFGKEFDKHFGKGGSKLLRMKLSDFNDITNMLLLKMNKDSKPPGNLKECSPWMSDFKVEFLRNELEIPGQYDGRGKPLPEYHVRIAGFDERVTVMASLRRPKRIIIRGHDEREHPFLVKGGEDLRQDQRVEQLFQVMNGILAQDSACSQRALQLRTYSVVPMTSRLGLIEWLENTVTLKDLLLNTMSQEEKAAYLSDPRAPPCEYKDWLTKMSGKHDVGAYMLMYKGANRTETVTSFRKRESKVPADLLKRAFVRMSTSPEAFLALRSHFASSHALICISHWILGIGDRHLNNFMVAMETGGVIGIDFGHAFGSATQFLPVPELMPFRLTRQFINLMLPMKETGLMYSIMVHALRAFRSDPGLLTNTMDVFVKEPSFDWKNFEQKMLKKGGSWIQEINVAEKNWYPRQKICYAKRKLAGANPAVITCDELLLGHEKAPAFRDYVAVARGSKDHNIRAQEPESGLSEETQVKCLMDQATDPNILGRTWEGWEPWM

The target of this test is T1, GPR37L1 tagged with turbo green fluorescence protein (GFP) (human) (UniProt O60883).
T1 sequence: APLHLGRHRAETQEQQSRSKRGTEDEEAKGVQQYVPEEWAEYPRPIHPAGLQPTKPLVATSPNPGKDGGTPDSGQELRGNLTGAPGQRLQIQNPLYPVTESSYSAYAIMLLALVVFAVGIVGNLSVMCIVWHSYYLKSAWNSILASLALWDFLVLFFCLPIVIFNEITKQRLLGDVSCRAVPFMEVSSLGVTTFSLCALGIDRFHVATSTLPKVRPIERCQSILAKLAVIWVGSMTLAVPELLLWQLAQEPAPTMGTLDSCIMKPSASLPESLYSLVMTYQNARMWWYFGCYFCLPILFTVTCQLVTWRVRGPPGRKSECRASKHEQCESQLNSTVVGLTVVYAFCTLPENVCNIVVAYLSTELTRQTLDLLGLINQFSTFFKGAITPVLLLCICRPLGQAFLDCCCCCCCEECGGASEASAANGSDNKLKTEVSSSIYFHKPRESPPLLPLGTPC
The experiment in a line: co-IP; glycerol gradient fractions 10-14 from hRPTCs expressing GPR37L1-GFP or mock-transfected; Co-IP with GFP antibody or control rabbit IgG; immunoblot for GPR37L1-GFP, DNMT1, mTOR, PRKDC.

Consider “DNA-dependent protein kinase catalytic subunit (from UniProt P78527 1-4128) (enzyme)”, for which the binding entry is “binds”.

Source of the values: paper PMC9698582.
